The other results are listed elsewhere or left out. The calls rarely recur for the same compound in another form.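 Kinases, fused to nanoluciferase, were expressed in K562 cells; luminescence was measured every 4 h from 2 to 18 h as percent of control (DMSO = 100%, positive control = 0%). A time point is decreased if signal falls significantly (2 sigma). Hits were called by the authors by a rule that is not shown; the count of time points alone does not decide it.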
Tests used:
Assay in all cases: kinase-Nluc reporter destabilization hit call (1 = scored as downregulated) (binary); higher = compound decreases kinase abundance
Conditions in all cases: K562; 2-18 h
[1] = biological target: IRAK3 (UniProt Q9Y616)
[2] = biological target: JAK1 (UniProt P23458)
[3] = biological target: LCK (UniProt P06239)
[4] = biological target: LIMK1 (UniProt P53667)
[5] = biological target: LIMK2 (UniProt P53671)
[6] = biological target: LMTK2 (UniProt Q8IWU2)
[7] = biological target: LYN (UniProt P07948)
[8] = biological target: MAP2K1 (UniProt Q02750)
[9] = biological target: MAP2K2 (UniProt P36507)
[10] = biological target: MAP4K2 (UniProt Q12851)

Sequences of proteins named here, by UniProt entry; tags and fusion partners are left off. A change or cut given only in a name is not applied to a line headed by its entry.
UniProt Q9Y616: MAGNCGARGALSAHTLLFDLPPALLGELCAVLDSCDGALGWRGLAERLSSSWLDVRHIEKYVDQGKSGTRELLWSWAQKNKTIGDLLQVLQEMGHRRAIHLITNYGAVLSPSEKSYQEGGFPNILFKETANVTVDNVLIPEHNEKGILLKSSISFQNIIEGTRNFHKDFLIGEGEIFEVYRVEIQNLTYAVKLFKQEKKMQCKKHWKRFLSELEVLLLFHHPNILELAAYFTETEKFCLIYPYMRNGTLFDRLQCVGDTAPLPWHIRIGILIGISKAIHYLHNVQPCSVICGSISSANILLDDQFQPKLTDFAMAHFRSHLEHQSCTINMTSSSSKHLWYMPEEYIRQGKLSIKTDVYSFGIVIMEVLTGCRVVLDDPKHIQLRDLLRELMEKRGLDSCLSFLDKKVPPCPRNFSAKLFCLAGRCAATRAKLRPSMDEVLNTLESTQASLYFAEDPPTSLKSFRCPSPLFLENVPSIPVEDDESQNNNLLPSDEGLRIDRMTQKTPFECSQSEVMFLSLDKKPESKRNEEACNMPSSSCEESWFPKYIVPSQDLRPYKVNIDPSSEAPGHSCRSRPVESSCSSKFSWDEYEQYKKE
UniProt P23458: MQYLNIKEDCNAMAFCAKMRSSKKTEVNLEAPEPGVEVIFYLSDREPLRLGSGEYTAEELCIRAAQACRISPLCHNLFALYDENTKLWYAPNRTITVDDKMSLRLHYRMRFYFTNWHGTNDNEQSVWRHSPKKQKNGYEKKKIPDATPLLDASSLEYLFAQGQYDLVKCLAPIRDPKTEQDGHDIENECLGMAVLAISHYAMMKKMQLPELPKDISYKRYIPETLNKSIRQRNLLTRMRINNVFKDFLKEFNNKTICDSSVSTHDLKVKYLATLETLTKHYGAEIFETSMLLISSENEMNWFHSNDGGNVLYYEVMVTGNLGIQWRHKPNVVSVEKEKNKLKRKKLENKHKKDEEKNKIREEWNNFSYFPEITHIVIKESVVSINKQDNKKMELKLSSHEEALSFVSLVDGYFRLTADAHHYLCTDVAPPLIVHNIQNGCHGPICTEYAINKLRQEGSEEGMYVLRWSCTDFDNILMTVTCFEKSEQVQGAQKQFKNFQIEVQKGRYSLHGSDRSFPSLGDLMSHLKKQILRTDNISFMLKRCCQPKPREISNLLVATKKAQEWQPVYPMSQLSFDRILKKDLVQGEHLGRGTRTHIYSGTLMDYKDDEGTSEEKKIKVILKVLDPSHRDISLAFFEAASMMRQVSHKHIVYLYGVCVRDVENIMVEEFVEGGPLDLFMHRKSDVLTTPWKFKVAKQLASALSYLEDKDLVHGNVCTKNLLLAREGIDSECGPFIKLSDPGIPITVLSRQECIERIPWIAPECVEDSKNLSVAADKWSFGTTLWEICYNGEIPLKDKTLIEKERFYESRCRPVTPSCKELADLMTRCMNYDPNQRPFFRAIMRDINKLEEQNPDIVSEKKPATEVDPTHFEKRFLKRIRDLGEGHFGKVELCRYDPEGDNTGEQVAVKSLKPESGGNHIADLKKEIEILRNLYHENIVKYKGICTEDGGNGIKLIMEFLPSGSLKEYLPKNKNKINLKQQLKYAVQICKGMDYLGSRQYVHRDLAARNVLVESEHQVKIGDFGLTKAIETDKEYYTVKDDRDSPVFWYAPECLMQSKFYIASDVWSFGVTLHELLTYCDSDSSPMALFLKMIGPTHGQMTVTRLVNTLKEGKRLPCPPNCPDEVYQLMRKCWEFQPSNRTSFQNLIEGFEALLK
UniProt P06239: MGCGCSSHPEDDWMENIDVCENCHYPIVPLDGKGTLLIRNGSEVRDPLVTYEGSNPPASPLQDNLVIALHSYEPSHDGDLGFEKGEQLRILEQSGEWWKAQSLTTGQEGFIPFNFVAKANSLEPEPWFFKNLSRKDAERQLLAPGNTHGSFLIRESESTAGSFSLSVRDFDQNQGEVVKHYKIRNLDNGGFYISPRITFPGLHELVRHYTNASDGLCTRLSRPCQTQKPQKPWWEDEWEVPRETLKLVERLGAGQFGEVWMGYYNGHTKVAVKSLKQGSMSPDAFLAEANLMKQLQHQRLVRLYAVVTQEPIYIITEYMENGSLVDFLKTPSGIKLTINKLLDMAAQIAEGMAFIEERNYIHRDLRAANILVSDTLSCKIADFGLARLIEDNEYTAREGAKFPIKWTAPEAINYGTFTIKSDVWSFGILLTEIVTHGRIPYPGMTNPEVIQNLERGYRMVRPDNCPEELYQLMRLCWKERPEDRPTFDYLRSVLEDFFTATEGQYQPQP
UniProt P53667: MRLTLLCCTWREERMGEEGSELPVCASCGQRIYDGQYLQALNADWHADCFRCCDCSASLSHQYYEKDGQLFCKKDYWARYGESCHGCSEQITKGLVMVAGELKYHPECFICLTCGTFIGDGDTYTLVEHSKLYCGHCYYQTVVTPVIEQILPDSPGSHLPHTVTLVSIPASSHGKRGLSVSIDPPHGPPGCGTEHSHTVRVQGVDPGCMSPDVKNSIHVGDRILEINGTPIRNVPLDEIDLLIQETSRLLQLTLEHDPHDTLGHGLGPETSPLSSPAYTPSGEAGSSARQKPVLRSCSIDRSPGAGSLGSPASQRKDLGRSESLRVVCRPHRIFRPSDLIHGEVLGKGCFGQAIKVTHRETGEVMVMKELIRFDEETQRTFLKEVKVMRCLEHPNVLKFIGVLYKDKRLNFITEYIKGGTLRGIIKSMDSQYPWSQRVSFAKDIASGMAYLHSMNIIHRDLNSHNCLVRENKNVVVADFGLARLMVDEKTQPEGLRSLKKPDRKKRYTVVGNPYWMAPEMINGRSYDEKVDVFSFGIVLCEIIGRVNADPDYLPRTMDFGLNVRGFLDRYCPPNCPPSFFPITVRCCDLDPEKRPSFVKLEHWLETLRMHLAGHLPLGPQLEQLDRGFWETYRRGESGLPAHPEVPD
UniProt P53671: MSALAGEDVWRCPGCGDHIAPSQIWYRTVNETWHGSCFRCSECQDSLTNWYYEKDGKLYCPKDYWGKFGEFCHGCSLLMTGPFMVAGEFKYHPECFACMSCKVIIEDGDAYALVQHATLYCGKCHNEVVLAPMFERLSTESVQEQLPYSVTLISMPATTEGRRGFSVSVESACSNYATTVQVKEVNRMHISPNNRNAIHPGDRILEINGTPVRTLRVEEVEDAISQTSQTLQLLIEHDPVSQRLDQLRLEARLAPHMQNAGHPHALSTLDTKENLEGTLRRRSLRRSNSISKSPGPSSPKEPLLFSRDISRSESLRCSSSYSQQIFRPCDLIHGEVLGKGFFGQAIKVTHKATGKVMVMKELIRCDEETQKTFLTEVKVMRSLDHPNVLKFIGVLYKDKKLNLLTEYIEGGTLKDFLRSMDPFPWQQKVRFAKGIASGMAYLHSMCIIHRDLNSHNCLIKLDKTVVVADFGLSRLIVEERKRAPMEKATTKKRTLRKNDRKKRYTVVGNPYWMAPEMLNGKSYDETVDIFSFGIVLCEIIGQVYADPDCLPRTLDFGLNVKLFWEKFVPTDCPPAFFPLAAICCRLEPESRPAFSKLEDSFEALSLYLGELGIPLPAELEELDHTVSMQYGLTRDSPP
UniProt Q8IWU2: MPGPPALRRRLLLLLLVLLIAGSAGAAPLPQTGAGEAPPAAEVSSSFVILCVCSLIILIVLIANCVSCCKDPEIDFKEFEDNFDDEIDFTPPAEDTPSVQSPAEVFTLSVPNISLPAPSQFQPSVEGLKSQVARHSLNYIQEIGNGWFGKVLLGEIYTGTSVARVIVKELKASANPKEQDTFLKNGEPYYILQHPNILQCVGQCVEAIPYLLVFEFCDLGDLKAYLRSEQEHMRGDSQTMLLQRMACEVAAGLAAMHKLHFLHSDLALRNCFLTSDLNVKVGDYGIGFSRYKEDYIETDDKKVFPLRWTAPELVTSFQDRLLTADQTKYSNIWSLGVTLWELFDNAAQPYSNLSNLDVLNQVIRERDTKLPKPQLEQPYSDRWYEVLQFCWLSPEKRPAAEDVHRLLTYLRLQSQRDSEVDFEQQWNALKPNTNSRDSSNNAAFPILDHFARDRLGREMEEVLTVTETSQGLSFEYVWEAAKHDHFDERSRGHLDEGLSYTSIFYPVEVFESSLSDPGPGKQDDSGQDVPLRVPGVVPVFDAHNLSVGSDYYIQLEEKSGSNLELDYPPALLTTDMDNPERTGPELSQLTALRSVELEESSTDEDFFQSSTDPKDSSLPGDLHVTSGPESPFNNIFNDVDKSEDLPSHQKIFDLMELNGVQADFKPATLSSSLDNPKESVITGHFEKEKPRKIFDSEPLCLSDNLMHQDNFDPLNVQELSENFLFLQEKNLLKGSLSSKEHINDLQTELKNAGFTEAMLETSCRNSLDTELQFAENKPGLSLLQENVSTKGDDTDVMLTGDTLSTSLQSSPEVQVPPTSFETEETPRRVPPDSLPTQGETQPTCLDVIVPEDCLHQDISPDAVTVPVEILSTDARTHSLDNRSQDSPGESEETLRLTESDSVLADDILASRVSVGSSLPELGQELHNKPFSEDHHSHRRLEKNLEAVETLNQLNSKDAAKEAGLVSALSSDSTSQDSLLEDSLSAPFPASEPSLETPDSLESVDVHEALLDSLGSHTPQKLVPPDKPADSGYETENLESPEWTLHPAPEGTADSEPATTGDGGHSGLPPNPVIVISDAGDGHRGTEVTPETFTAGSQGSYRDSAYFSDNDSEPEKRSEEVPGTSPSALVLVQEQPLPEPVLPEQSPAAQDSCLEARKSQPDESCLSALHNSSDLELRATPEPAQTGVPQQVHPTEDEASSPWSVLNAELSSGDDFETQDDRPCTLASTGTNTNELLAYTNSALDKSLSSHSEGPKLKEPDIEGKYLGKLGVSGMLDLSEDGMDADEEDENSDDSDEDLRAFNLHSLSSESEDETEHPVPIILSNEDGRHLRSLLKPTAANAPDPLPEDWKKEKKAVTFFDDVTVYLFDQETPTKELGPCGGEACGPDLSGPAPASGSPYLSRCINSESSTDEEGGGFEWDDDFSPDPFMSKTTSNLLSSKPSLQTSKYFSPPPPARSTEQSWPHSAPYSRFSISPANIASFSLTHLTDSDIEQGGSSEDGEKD
UniProt P07948: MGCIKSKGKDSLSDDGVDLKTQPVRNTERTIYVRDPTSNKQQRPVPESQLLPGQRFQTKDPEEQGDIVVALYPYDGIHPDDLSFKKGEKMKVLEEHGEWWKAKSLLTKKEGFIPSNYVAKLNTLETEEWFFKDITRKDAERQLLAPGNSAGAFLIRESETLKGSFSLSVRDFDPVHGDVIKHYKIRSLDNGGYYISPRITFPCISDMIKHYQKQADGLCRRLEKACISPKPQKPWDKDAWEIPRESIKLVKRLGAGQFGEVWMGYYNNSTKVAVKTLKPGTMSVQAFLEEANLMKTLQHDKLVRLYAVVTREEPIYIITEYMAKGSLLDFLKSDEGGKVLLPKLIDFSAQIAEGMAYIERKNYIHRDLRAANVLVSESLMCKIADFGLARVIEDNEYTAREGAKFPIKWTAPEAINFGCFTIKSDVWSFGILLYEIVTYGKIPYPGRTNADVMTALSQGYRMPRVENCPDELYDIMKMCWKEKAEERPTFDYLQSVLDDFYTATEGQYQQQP
UniProt Q12851: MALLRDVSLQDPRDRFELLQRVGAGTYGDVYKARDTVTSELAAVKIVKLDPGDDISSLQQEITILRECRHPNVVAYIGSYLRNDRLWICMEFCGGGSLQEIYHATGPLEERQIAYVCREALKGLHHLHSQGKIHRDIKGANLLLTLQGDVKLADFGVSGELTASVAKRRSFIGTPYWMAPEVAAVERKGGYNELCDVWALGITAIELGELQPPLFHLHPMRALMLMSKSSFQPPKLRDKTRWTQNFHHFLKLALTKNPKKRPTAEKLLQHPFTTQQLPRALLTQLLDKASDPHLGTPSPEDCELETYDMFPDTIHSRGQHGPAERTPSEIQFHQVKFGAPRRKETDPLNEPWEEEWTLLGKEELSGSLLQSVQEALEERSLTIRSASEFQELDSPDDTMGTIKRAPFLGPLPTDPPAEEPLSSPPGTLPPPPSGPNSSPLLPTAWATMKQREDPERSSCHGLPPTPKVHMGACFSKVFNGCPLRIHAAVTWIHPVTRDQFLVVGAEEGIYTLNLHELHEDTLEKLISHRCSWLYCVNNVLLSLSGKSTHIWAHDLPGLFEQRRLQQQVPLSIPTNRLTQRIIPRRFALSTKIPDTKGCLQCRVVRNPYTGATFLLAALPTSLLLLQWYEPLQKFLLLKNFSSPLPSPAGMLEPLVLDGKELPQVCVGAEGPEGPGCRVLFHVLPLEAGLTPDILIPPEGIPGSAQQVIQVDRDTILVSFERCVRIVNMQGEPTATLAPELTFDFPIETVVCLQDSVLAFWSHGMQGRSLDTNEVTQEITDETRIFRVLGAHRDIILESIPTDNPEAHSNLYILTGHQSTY

Measured: kinase-Nluc reporter destabilization hit call

CCc1c(C(=O)NNC(=O)[C@H](O)c2cc(F)cc(F)c2)ccc(O)c1C (10 µM)
inactive: [1] 0 | [2] 0 | [3] 0 | [4] 0 | [5] 0 | [6] 0 | [7] 0 | [8] 0 | [9] 0 | [10] 0

N=C(NC(=N)N1CCCC1)Nc1ccc(OC(F)(F)F)cc1 (10 µM)
inactive: [1] 0 | [2] 0 | [3] 0 | [4] 0 | [5] 0 | [6] 0 | [7] 0 | [8] 0 | [9] 0 | [10] 0

COc1ccc(-c2cc(=O)c3c(O)cc(O)cc3o2)cc1-c1c(O)cc(O)c2c(=O)cc(-c3ccc(O)cc3)oc12 [Bilobetin] (2.5 µM)
inactive: [1] 0 | [2] 0 | [3] 0 | [4] 0 | [5] 0 | [6] 0 | [7] 0 | [8] 0 | [9] 0 | [10] 0

Cc1ccc(NC(=O)N2CCN(c3nc(N)nc4sc(-c5cccnc5)nc34)CC2)cc1 [PI4KIII beta inhibitor 3] (10 µM)
inactive: [1] 0 | [2] 0 | [3] 0 | [4] 0 | [5] 0 | [6] 0 | [7] 0 | [8] 0 | [9] 0 | [10] 0

N#CC(=C(/N)Sc1ccccc1N)/C(C#N)=C(\N)Sc1ccccc1N (10 µM)
inactive: [1] 0 | [2] 0 | [3] 0 | [4] 0 | [5] 0 | [6] 0 | [7] 0 | [8] 0 | [9] 0 | [10] 0

CC(C1CC1)n1cnc2c(NCc3cccc(C(F)(F)F)c3)nc(NCCN(C)C)nc21 (stereo not given) (10 µM)
inactive: [1] 0 | [2] 0 | [3] 0 | [4] 0 | [5] 0 | [6] 0 | [7] 0 | [8] 0 | [9] 0 | [10] 0

CC(=O)O[C@@H]1[C@@H](OC(C)=O)[C@@H](O)[C@H](Oc2c(-c3ccc(O)cc3)oc3cc(O)cc(O)c3c2=O)O[C@H]1C (10 µM)
inactive: [1] 0 | [2] 0 | [3] 0 | [4] 0 | [5] 0 | [6] 0 | [7] 0 | [8] 0 | [9] 0 | [10] 0

O=C(Nc1ccc(Cl)cc1)C1CN(C(=O)c2cccc(-c3ccco3)c2)CC(F)(F)C1 (stereo not given) (2.5 µM)
inactive: [1] 0 | [2] 0 | [3] 0 | [4] 0 | [5] 0 | [6] 0 | [7] 0 | [8] 0 | [9] 0 | [10] 0

COc1cc2ncnc(Nc3cc(Br)c(O)c(Br)c3)c2cc1OC (2.5 µM)
inactive: [1] 0 | [2] 0 | [3] 0 | [4] 0 | [5] 0 | [6] 0 | [7] 0 | [8] 0 | [9] 0 | [10] 0

Cn1cnc2c(F)c(Nc3ccc(Br)cc3F)c(C(=O)NOCCO)cc21 [Binimetinib] (10 µM)
inactive: [1] 0 | [2] 0 | [3] 0 | [4] 0 | [5] 0 | [6] 0 | [7] 0 | [8] 0 | [9] 0 | [10] 0

COc1c(O)cc(O)c2c(=O)cc(-c3ccccc3)oc12 [Wogonin] (10 µM)
inactive: [1] 0 | [2] 0 | [3] 0 | [4] 0 | [5] 0 | [6] 0 | [7] 0 | [8] 0 | [9] 0 | [10] 0

CCCCC(=O)OCC(=O)[C@]1(O)Cc2c(O)c3c(c(O)c2[C@@H](O[C@H]2C[C@H](NC(=O)C(F)(F)F)[C@H](O)[C@H](C)O2)C1)C(=O)c1c(OC)cccc1C3=O [Valrubicin] (10 µM)
inactive: [1] 0 | [2] 0 | [3] 0 | [4] 0 | [5] 0 | [6] 0 | [7] 0 | [8] 0 | [9] 0 | [10] 0

CN1C(=O)N[C@@H](Cc2c[nH]c3c(Cl)cccc23)C1=O [Necrostatin 2 (S enantiomer)] (10 µM)
inactive: [1] 0 | [2] 0 | [3] 0 | [4] 0 | [5] 0 | [6] 0 | [7] 0 | [8] 0 | [9] 0 | [10] 0

CCCCNc1ncc2c(-c3ccc(F)cc3)nn(CC3CCC(N)CC3)c2n1 (stereo not given) (2.5 µM)
inactive: [1] 0 | [2] 0 | [3] 0 | [4] 0 | [5] 0 | [6] 0 | [7] 0 | [8] 0 | [9] 0 | [10] 0

Cc1ccc2c(NS(=O)(=O)c3ccccc3Cl)cccc2c1Oc1ncccc1-c1ccnc(N[C@H]2CCCNC2)n1 (2.5 µM)
inactive: [1] 0 | [2] 0 | [3] 0 | [4] 0 | [5] 0 | [6] 0 | [7] 0 | [8] 0 | [9] 0 | [10] 0

N#Cc1cc(-c2ccnc(Nc3ccc(N4CCOCC4)cc3)n2)ccc1OC1CCOCC1 (10 µM)
inactive: [1] 0 | [2] 0 | [3] 0 | [4] 0 | [5] 0 | [6] 0 | [7] 0 | [8] 0 | [9] 0 | [10] 0

CCOc1cc(=O)[nH]cc1-c1ccc(CC(=O)Nc2cc(C(C)(C)C(F)(F)F)on2)c(F)c1 (10 µM)
inactive: [1] 0 | [2] 0 | [3] 0 | [4] 0 | [5] 0 | [6] 0 | [7] 0 | [8] 0 | [9] 0 | [10] 0

CCn1c(N)c(C(=O)NC)c(=O)c2ccc(C#CC(C)(O)COC)nc21 (stereo not given) (10 µM)
inactive: [1] 0 | [2] 0 | [3] 0 | [4] 0 | [5] 0 | [6] 0 | [7] 0 | [8] 0 | [9] 0 | [10] 0

CC(C)n1cnc2c(Nc3cccc(Cl)c3)nc(N[C@H]3CCCC[C@@H]3N)nc21 (2.5 µM)
inactive: [1] 0 | [2] 0 | [3] 0 | [4] 0 | [5] 0 | [6] 0 | [7] 0 | [8] 0 | [9] 0 | [10] 0

COc1cccc(-c2cc(=O)c3ccccc3o2)c1N (10 µM)
inactive: [1] 0 | [2] 0 | [3] 0 | [4] 0 | [5] 0 | [6] 0 | [7] 0 | [8] 0 | [9] 0 | [10] 0

Cn1c(N2CCO[C@@H](c3ccc(F)cc3)C2)nc(-c2ccncn2)cc1=O (10 µM)
inactive: [1] 0 | [2] 0 | [3] 0 | [4] 0 | [5] 0 | [6] 0 | [7] 0 | [8] 0 | [9] 0 | [10] 0

O=S(=O)(c1ccc(O)cc1O)N1Cc2cc(O)cc(O)c2C1 (10 µM)
inactive: [1] 0 | [2] 0 | [3] 0 | [4] 0 | [5] 0 | [6] 0 | [7] 0 | [8] 0 | [9] 0 | [10] 0

CC(C)Cn1ncc2cc(Oc3ccc(F)cc3F)c(C(=O)NCCN(C)C)cc21 [p38α inhibitor 1] (10 µM)
inactive: [1] 0 | [2] 0 | [3] 0 | [4] 0 | [5] 0 | [6] 0 | [7] 0 | [8] 0 | [9] 0 | [10] 0

C[C@@H](NC(=O)c1ncnc(N)c1Cl)c1ncc(C(=O)Nc2cc(C(F)(F)F)c(Cl)cn2)s1 (2.5 µM)
inactive: [1] 0 | [2] 0 | [3] 0 | [4] 0 | [5] 0 | [6] 0 | [7] 0 | [8] 0 | [9] 0 | [10] 0

CC1(C)CN(C(=O)c2ccc(-c3cccc4nc(NC(=O)C5CC5)nn34)cc2)C1 [Solcitinib] (10 µM)
inactive: [1] 0 | [2] 0 | [3] 0 | [4] 0 | [5] 0 | [6] 0 | [7] 0 | [8] 0 | [9] 0 | [10] 0

Cc1nn(CC(F)(F)F)cc1Nc1ncc(Br)c(NCc2ccc(S(N)(=O)=O)cc2)n1 (10 µM)
inactive: [1] 0 | [2] 0 | [3] 0 | [4] 0 | [5] 0 | [6] 0 | [7] 0 | [8] 0 | [9] 0 | [10] 0

Arranged by molar mass (low to high): part of the list above
CC1(C)CN(C(=O)c2ccc(-c3cccc4nc(NC(=O)C5CC5)nn34)cc2)C1 [Solcitinib] (10 µM)
inactive: [1] 0 | [2] 0 | [3] 0 | [4] 0 | [5] 0 | [6] 0 | [7] 0 | [8] 0 | [9] 0 | [10] 0

CC(C)Cn1ncc2cc(Oc3ccc(F)cc3F)c(C(=O)NCCN(C)C)cc21 [p38α inhibitor 1] (10 µM)
inactive: [1] 0 | [2] 0 | [3] 0 | [4] 0 | [5] 0 | [6] 0 | [7] 0 | [8] 0 | [9] 0 | [10] 0

C[C@@H](NC(=O)c1ncnc(N)c1Cl)c1ncc(C(=O)Nc2cc(C(F)(F)F)c(Cl)cn2)s1 (2.5 µM)
inactive: [1] 0 | [2] 0 | [3] 0 | [4] 0 | [5] 0 | [6] 0 | [7] 0 | [8] 0 | [9] 0 | [10] 0

The list continues:

CS(=O)(=O)c1ccc([C@@H](CC2CCCC2)C(=O)Nc2nccs2)cc1 (10 µM)
inactive: [1] 0 | [2] 0 | [3] 0 | [4] 0 | [5] 0 | [6] 0 | [7] 0 | [8] 0 | [9] 0 | [10] 0

Cc1cccc(CC(=O)N2CCc3c2ccc(-c2cn(C)c4ncnc(N)c24)c3F)n1 (10 µM)
inactive: [1] 0 | [2] 0 | [3] 0 | [4] 0 | [5] 0 | [6] 0 | [7] 0 | [8] 0 | [9] 0 | [10] 0

— the supplement of paper PMC12823440, “Inhibitors supercharge kinase turnover through native proteolytic circuits” (Nature, 2025)
